Reference: paper PMC6054649
Results are given in words; binding and its absence hold for the method and conditions named. Binding seen in cells or lysates may run through a third protein. Some binding calls cover weakened binding; strength is not graded here. Sequences can lack the tags named with a protein.

Protein sequences, listed by entry. Tags and fused reporters are not part of them.
UniProt P31266: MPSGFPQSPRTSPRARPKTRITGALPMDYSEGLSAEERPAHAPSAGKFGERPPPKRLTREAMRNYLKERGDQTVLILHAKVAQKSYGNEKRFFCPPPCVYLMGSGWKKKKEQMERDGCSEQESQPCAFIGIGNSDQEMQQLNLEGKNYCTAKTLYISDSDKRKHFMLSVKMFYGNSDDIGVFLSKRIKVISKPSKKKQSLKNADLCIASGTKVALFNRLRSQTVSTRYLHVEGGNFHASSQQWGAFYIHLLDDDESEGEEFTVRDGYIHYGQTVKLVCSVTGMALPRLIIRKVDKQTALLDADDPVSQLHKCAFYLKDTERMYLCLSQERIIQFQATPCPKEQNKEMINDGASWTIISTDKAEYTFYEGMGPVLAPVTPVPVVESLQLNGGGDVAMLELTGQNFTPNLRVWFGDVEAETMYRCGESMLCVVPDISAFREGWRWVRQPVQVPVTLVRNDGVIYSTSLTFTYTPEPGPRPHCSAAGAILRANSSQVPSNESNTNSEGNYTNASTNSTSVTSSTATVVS

Target: T1, Ptf1a-Flag (flag-tagged Ptf1a) (UniProt Q9QX98)
T1 sequence: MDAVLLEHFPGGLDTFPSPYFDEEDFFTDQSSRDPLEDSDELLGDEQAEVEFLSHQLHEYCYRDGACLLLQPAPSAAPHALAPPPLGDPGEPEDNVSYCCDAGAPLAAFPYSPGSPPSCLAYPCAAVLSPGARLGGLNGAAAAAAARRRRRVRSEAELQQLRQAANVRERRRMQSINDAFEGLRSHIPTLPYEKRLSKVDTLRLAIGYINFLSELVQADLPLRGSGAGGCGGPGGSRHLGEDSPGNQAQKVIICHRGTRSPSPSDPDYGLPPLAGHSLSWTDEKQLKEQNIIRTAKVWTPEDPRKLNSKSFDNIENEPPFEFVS
Experiment: co-IP; Lysates of MEFs infected with Ptf1a-Flag (or control GFP) lentiviruses, collected at day 12, were incubated with anti-Flag resin at 4 °C overnight, washed with Tris-buffered saline and eluted with 3x Flag peptide; western blot with anti-Rbpj

binding: binds
Substance: Rbpj (from UniProt P31266 1-526)
